PubChem BioAssay AID1259308 – NCATS | 2017

- Assay: 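Candidate targets for better recombinant protein yield in mammalian cells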 (primary screen)
- Cell system: human HEK293 embryonic kidney cells stably expressing firefly luciferase (HEK-CMV-Luc2-Hygro)
- Reagent: single siRNA against human genes, 0.8 pmol siRNA per well
- Duration: 72 h
- Measured: 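Reporter luminescence and viable-cell signal on separate replicate plates, given as percent of non-targeting control and median/MAD z-scores, plus per-cell luciferase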
- Scale: total luciferase, z-score: higher = more reporter protein produced
- Active means: 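An siRNA counts as active if its total luciferase robust z-score exceeds 3; genes with two or more such siRNAs out of three were retested with fresh siRNAs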
- Calls: active = raised luciferase; inactive = no rise
In all, the deposit lists about 59,000 reagents; shown is a random part of them. About 1,510 of them (2.6%) were called active. 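Calls use total luciferase alone and ignore viability, so some active siRNAs may act by altering cell number.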 A number with no mark means an inactive call. Reagents against one gene are numbered here. Not all columns of the deposit are shown. Reagent sequences are not shown.

With TINAGL1 (tubulointerstitial nephritis antigen like 1) #1, what was measured?
total luciferase, z-score: -0.497

What did the screen give for TINAGL1 (tubulointerstitial nephritis antigen like 1) #2?
total luciferase, z-score: -1.64

Which result is listed for TINAGL1 (tubulointerstitial nephritis antigen like 1) #3?
total luciferase, z-score: -0.579

Which result is listed for CYP1A2 (cytochrome P450 family 1 subfamily A member 2) #1?
total luciferase, z-score: 1.02

With CYP1A2 (cytochrome P450 family 1 subfamily A member 2) #2, what was measured?
total luciferase, z-score: 0.142

Which result is listed for CYP1A2 (cytochrome P450 family 1 subfamily A member 2) #3?
total luciferase, z-score: -0.773

With ZNF462 (zinc finger protein 462) #1, what was measured?
total luciferase, z-score: -0.329

What is on record for ZNF462 (zinc finger protein 462) #2?
total luciferase, z-score: -1.03

With ZNF462 (zinc finger protein 462) #3, what was measured?
total luciferase, z-score: -0.39

For DLX6-AS1 (DLX6 antisense RNA 1) #1, what does the deposit list?
total luciferase, z-score: -1.08

What did the screen give for DLX6-AS1 (DLX6 antisense RNA 1) #2?
total luciferase, z-score: 0.491

With DLX6-AS1 (DLX6 antisense RNA 1) #3, how do the results read?
total luciferase, z-score: 0.997

Already shown: 3 of the entries above.
CYP1A2 (cytochrome P450 family 1 subfamily A member 2) #1 → total luciferase, z-score: 1.02
CYP1A2 (cytochrome P450 family 1 subfamily A member 2) #2 → total luciferase, z-score: 0.142
CYP1A2 (cytochrome P450 family 1 subfamily A member 2) #3 → total luciferase, z-score: -0.773

The list goes on:
For COQ3 (coenzyme Q3, methyltransferase) #1, how do the results read?
total luciferase, z-score: 2.13

What is on record for COQ3 (coenzyme Q3, methyltransferase) #2?
total luciferase, z-score: 0.0618

What did the screen give for COQ3 (coenzyme Q3, methyltransferase) #3?
total luciferase, z-score: -0.173

Which result is listed for CFI (complement factor I) #1?
total luciferase, z-score: 0.508

Which result is listed for CFI (complement factor I) #2?
total luciferase, z-score: 2.9

For CFI (complement factor I) #3, how do the results read?
total luciferase, z-score: 0.817

For NME7 (NME/NM23 family member 7) #1, how do the results read?
total luciferase, z-score: 0.2

What is on record for NME7 (NME/NM23 family member 7) #2?
total luciferase, z-score: 0.998

How did the screen score NME7 (NME/NM23 family member 7) #3?
total luciferase, z-score: 1.56
